Data source: PubChem BioAssay AID504793 (Drosophila RNAi Screening Center, 2011)
The deposit covers about 23,000 reagents; below is an unselected part of those that have a named target and a result. Over the whole deposit, 62 (0.27%) got an active call. 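Calls come from follow-up tests whose scores are not deposited, so confirmed genes may have low counts here; counts are not normalised per plate.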 Raw values are not corrected between plates. Entries without a mark were called inactive. A plus sign joins genes that one reagent is predicted to hit.

Assay: 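Whole-genome screen for parts of the DNA damage checkpoint at G2/M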 (primary screen)
System: Drosophila S2R+ cells
Reagents: long dsRNA against Drosophila genes, about 0.25 µg dsRNA per well
Timing: 4 days of dsRNA, then 4 hours of drug before read-out
Treatment: doxorubicin 0.5 µM for 4 hours to cause double-strand breaks, in cells also given a low, harmless dose of dsRNA against nbs to sensitise the assay
Measurement: 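Mitotic index as the number of phospho-histone H3-positive cells in each well following doxorubicin, given as raw counts without normalisation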
Direction: mitotic cells: higher = more cells in mitosis, weaker G2 arrest
Active means: 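a call needs confirmation in secondary tests, with other dsRNAs and a check of mitotic timing without damage, not just a high primary count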
Calls: active = confirmed in follow-up tests; inactive = not confirmed

target | dsRNA | mitotic cells, replicate 1 | mitotic cells, replicate 2
NimB5 | DRSC01885 | 6 | –
Abcd1 | DRSC17157 | 8 | –
l(1)G0469 | DRSC19412 | 6 | –
l(1)G0469 | DRSC19462 | 13 | –
l(3)04053 | DRSC11640 | 4 | 6
CG3603 | DRSC18317 | 7 | –
Apl | DRSC10350 | 7 | –
CG17721 | DRSC15253 | 9 | –
lncRNA:roX2 | DRSC22237 | 7 | –
lncRNA:roX2 | DRSC27049 | 5 | –
CG12376 | DRSC06144 | 3 | –
CG12376 | DRSC29464 | 3 | –
Usp7 | DRSC18909 | 6 | –
Usp7 | DRSC19604 | 11 | –
Usp7 | DRSC26109 | 10 | –
CG32181 | DRSC22635 | 11 | –
CG32181 | DRSC26268 | 5 | –
CG8142 | DRSC20086 | 3 | –
CG8142 | DRSC26373 | 3 | –
en | DRSC07609 | 3 | –
en | DRSC25628 | 6 | –
ND-39 | DRSC11791 | 9 | –
ND-39 | DRSC28392 | 5 | –
CG12010 | DRSC08218 | 4 | –
CG5478 | DRSC15814 | 3 | –

Continued, starting with the last 3 of the part before.
target | dsRNA | mitotic cells, replicate 1 | mitotic cells, replicate 2
ND-39 | DRSC28392 | 5 | –
CG12010 | DRSC08218 | 4 | –
CG5478 | DRSC15814 | 3 | –
CARPA | DRSC17905 | 8 | –
CARPA | DRSC21633 | 5 | –
CG15909 | DRSC04977 | 7 | –
Topors | DRSC06531 | 12 (active) | –
Zip42C.2 | DRSC05004 | 6 | –
Zip42C.2 | DRSC26644 | 3 | –
CG32299 + CG32298 | DRSC07980 | 4 | –
CG32299 + CG32298 | DRSC22354 | 7 | –
CG32299 + CG32298 | DRSC25827 | 4 | –
CG10068 | DRSC12508 | 9 | –
spz6 | DRSC04533 | 6 | –
mud | DRSC19019 | 22 | 7
GstS1 | DRSC07436 | 7 | –
Jon99Ciii + Jon99Fi + Jon99Fii + 1 more | DRSC29104 | 3 | –
P58IPK | DRSC16404 | 2 | –
P58IPK | DRSC27012 | 2 | –
fwd | DRSC08580 | 4 | –
fwd | DRSC26680 | 8 | –
Mtpalpha | DRSC01994 | 9 | –
CG10663 | DRSC09770 | 6 | –
